Experimental data taken from paper PMC3536697.
Results are given in words; binding and its absence hold for the method and conditions named. In cells and extracts the contact can be indirect. Binding can be weak; no strength is given.

Chains of the proteins cited; added tags and fusions are not shown. Lines headed by an entry give the natural chain unless they say otherwise; changes in a name come on top.
UniProt Q5AB98: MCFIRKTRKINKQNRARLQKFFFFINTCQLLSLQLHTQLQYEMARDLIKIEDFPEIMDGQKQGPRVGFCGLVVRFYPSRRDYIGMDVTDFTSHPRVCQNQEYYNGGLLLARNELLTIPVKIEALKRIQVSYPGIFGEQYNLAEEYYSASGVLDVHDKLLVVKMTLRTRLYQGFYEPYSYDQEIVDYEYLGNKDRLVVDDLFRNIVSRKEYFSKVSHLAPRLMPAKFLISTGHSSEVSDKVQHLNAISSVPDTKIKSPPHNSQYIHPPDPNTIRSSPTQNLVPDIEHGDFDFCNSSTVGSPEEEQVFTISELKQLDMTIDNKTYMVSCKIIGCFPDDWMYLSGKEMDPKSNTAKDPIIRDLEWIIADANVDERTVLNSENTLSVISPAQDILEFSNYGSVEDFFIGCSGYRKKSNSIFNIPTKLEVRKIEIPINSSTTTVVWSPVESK
UniProt A0A1D8PI83: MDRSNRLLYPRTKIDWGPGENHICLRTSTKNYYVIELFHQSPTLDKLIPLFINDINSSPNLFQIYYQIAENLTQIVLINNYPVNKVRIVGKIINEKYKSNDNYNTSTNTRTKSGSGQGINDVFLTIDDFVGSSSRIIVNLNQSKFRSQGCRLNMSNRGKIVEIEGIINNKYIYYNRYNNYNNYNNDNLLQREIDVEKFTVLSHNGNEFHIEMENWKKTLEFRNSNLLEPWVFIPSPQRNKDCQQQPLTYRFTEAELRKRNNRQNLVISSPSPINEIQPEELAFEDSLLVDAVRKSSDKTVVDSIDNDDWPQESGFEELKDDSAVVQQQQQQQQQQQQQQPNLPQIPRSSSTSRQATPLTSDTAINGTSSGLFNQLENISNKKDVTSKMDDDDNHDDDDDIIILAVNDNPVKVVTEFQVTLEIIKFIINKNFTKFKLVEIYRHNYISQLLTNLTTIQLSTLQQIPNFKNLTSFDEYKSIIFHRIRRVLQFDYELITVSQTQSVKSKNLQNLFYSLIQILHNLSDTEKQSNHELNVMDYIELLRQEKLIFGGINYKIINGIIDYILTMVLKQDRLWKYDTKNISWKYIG

Target: GST-CaCdc13-FG fusion protein (Candida albicans Cdc13) (Candida albicans) (UniProt Q5AB98)
Test: co-IP; extracts of E. coli expressing HIS6-SUMO-CaStn1 (wild type or K98E/K170E) alone or with GST-CaCdc13-FG, M2 affinity purification; Coomassie and Western (anti-FLAG, anti-HIS6)

binding: binds
Substance: HIS6-SUMO-CaStn1 fusion protein (Candida albicans Stn1), wild type (from UniProt A0A1D8PI83 1-587)
